This assay addresses T1, D. melanogaster DROSHA (D. melanogaster) (UniProt Q7KNF1).
T1 sequence: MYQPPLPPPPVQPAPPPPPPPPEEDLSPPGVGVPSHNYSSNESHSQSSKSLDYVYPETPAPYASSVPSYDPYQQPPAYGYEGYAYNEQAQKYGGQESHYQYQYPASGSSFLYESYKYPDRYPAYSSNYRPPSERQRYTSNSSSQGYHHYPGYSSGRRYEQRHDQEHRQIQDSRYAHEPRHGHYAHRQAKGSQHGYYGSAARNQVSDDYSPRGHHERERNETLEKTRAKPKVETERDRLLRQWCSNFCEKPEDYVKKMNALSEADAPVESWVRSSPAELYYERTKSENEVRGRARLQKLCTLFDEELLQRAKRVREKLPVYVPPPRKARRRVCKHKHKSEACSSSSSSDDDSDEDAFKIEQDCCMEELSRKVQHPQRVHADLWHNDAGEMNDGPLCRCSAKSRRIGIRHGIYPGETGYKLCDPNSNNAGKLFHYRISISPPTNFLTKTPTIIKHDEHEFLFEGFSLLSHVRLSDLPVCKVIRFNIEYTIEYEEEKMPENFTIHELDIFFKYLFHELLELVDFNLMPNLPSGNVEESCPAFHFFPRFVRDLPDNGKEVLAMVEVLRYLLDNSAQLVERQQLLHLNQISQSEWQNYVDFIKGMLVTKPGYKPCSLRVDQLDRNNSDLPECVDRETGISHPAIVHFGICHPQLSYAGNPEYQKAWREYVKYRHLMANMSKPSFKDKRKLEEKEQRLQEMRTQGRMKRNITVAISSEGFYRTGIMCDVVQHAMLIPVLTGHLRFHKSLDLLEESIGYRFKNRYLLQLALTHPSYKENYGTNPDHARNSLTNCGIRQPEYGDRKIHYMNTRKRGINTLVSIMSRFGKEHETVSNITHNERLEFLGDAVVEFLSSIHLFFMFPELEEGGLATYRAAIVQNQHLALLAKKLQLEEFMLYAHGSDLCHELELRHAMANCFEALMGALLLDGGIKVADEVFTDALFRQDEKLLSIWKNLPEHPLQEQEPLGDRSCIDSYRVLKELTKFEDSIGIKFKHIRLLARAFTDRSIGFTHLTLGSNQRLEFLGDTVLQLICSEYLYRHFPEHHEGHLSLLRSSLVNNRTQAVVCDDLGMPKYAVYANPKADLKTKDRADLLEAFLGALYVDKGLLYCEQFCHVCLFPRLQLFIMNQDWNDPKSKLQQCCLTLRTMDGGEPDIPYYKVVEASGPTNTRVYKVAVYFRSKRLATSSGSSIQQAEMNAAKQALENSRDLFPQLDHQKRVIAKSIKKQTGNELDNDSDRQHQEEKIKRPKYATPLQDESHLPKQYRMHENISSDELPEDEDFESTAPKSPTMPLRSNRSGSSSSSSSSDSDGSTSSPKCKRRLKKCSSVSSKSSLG
The assay can be described thus: tandem affinity co-purification (Ni-NTA, then IgG sepharose); both proteins co-expressed in HEK293E; lysate in T500 (20 mM Tris-HCl pH 7.5, 500 mM NaCl, 4 mM beta-mercaptoethanol) with 2 ug/ml RNase A; Ni-NTA (His tag on the DGCR8 ortholog), washes with 0 and 2000 mM NaCl and 50 mM imidazole, eluted with 300 mM imidazole; eluate bound to IgG sepharose (protein G on DROSHA) at 4 °C for 4 h.

No constants are given. Whether binding was seen depends on the method and setting. Some entries that bind do so weakly or less than the wild type.

B1: D. melanogaster PASHA (protein, UniProt Q9V9V7 1-642)
chain: MAEKPLADCPDSGQVRKRPRLEDEEQELKVAGFSLSAIEEMRRTRDNELQNEPMDQQLRQFQVLDEVGSGSDEDDESDNASEQQGGRYGEGGDEEEEAADGDGEEYDSSEFDDDEIENLLDEKLPEELRESKQPKYEQRFKTVLEEKRLNHFEVLPEGWVQVTHNSGMPLFLHRKTRVCCASRPYFLGTGSARKHAVPLGAIPCLNYRRALEEESEVEQQKTDGAPPVAVCPMAGASALPAEAMDVEGKENNEGSTDSKTQPDGITALMPAAKIVTVNENTQKESITPEQLNTYCQKLFKFKVIRVLRFRSWNARRKFTKNRKHIKNIQRPTLPDGTKLIKFPILANAGEGSTNPRGRKEWIMNPNGKSFVCILHEYVQHALKTQPTYEFKELQNAATPYSATVSVNNLKYGTGYGTSKKQAKSEAARETLEILIPDVKDKITGNNKDQKSGTAKKAQSDLSVFDDIRIEDPRVTEFCNKTTEPSPNAILLTCLQRNYGSDVQISQEINRTANNKNEFTMTVGKHTAKVVCKNKREGKQLASQAILQILHPHIQTWGSLLRLYGNNSIKTFKEKKLEEQEITVLQSKAAVNQPNYAILDKLKSEMLKLCAKQESVLTMGTFVPPSDVDLPTSSGSNLNNVEL
With B1, the binding entry is reported as “binds”.

The values above are taken from PMC8616936.
